Laboratory results taken from patent US6225100A, “Arylsulfotransferase” (DCV, Inc., priority 1999, dated 2001).
For at least one compound, name, drawing or mass did not settle the structure.

Columns and labels:
[1] = tested on: AST of Clostridium innocuum 554 ATCC 55803 (Strain 554WT); assay: AST assay, sulfate donor substrate specificity with tyramine as sulfate acceptor; format: biochemical; details: for Activity (%) as sulfate donor: relative to p-nitrophenylsulfate designated as 100% activity, tyramine as sulfate acceptor
Protocol: (§1) At each stage of purification, the AST activity was assayed by incubating the AST with 0.1 M Tris (pH 8.0), 5.0 mM p-nitrophenylsulfate (as aryl sulfate donor) and 2.5 mM tyramine (as sulfate acceptor). The reaction was incubated at 37° C. and terminated by addition of 1 N NaOH. The amount of p-nitrophenol formed during the reaction was determined by an absorbance reading at 405 nm. One unit of enzyme is equal to 1 mmol of p-nitrophenol formed per minute per milligram protein. Other aryl sulfate donors and phenolic acceptors were used at similar concentrations. Peptide acceptors were typically used in the 250-500 mM range. Formation of sulfated phenols and peptides was also quantitated via HPLC, using a 30% acetonitrile/70% water mobile phase. A UV detector was used to monitor peptides at 280 nm. Other wavelengths were used with various sulfated phenolic products and substrates as appropriate.
The AST assay was performed as described in Example 2 using each of the sulfate donors listed in Table 4, with tyramine as the sulfate acceptor in each case. […] Activity is shown as a percentage relative to the activity obtained with p-nitrophenylsulfate, which is designated as 100% activity.

[2] = tested on: AST of Clostridium innocuum 554 ATCC 55803 (Strain 554WT); assay: Apparent Km from double reciprocal plots; format: biochemical
Protocol: as §1
In this AST assay, various concentrations of p-nitrophenylsulfate (as a sulfate donor) and of tyramine (as a sulfate acceptor) were plotted against the corresponding enzyme reaction rate in a double reciprocal plots (FIG. 4). AST activity was determined as described previously.

Structure (SMILES) | Activity (%) as sulfate donor [1] | Km [2] | specific activity as donor substrate ([1]; normalized to p-acetylphenylsulfate as donor baseline at 100% activity)
CC(=O)c1ccc(OS(=O)(=O)O)cc1 [p-acetylphenylsulfate] | 128% | – | –
O=[N+]([O-])c1ccc(OS(=O)(=O)O)cc1 [p-nitrophenylsulfate] | 100% | 2.81 mM | about 78%
